Measured values taken from PubChem BioAssay AID1508600 (Functional Genomics Laboratory (NCATS/FGL), 2020).
Among all 53,000 sequences or so, about 3,700 (7%) were called active.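 The calls were made as follows: active = gene knockdowns whose robust z-score for IL-1 alpha signal is at least 2 or at most -2, so actives lie on both sides; inactive = the rest.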 Some of the results follow.

Assay: Components of the Cytosolic LPS Sensing Pathway: Gene Identification via Genome-wide siRNA Screen;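 also: robust z of the log signal after scaling to non-targeting control siRNA wells of the plate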
Settings: RAW264.7 macrophages, IL-1a HTRF, actives lie on both sides, screened at 100 nM (by protocol), cells primed 5 h with Pam3CSK4 first
Summary of the method: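 Read-out: IL-1a HTRF on supernatant, divided by plate negative-control median ×100, log-transformed and converted to robust z-score. Cells were RAW264.7 given 100 nM siRNA, Pam3CSK4-primed 5 hours, then LipidA-transfected 24 hour.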

z-score, inactive:
GGAACUCUCAAGAGAGAAUTT against Dnajc14 0.233
CCUUGGUUUGCACACUCAGTT against Batf3 -0.155
GGAUGCUUUACCAAAUGAATT against Slc44a3 0.147
GGCGGUUUAUGGUAUAAACTT against Fam72a 0.723
GGGAAAGGACAUUACCCAGTT against Stox2 -0.22
GAGCUUGUUCACAUGUUUCTT against Tnfsf12 0.15
GCCUCUUGAUGUUAAAGUATT against Krt2 0.732
GGAAGUCAUUGCUGUCGUCTT against Mov10l1 -1.12
GGAAGUUGACACCAAAACCTT against Magel2 -0.295
GGAUUCCCUGUAUGCCCAATT against Rpl36al -0.23
CCAUUUGACAAGACUGCCATT against Ppp6r1 0.921
GCACCAAUUCCCUAACUGGTT against Fam102a 0.244
CCCAGCUUAUACUCUUAAGTT against Fez1 0.344
GGCUCAGCACAAUGACUCUTT against Grem1 1.49
GGGUGUAUUCUGCUUUGUATT against Otud6b 0.845
GCUCUUGGUGGAUCAUCAATT against Foxo3 -1.35
GGCUAUUUGUUACACCGUCTT against Sharpin -0.391
CCGUAUAAACAUUUAUGAGTT against Bmp4 -0.295
GGUGGAAGUUUGAUUGGUGTT against Ap3s2 -0.992
GGGCAUUGGGAUCCUCAAUTT against Olfr139 -0.734
UUGUAGAAGCAUUCUUAUCTT against Olfr668 -1.56
GCGCGCACGAUGCUUCAUUTT against Dcstamp 0.00291
GGGAUCUAAAGGCUGAAAATT against Mark4 -0.291
GGAGUUGGAUAUUCUAAAATT against B3gntl1 -0.64
GCUAUUAAAGAGGUAGUCATT against Lancl2 -0.479
GGCUCUGCUCCUUCAAUGUTT against Dnase1l3 -0.798
GGCAGCAGUUAUUGUGGAUTT against Ly6a 0.693
GCACUGUGGGUGUUUUUAGTT against E130309D02Rik -0.198
GGUUAAAAAGGAUUUCAGCTT against Tcp11l2 0.0471

Copied from the listing for reference:
z-score, inactive:
GCUCUUGGUGGAUCAUCAATT against Foxo3 -1.35
GGCUAUUUGUUACACCGUCTT against Sharpin -0.391
CCGUAUAAACAUUUAUGAGTT against Bmp4 -0.295
GGUGGAAGUUUGAUUGGUGTT against Ap3s2 -0.992
GGGCAUUGGGAUCCUCAAUTT against Olfr139 -0.734
UUGUAGAAGCAUUCUUAUCTT against Olfr668 -1.56
